Results are given in words; binding and its absence hold for the method and conditions named. Binding seen in cells or lysates may run through a third protein. A yes stands for co-enrichment or nearness to the bait. Other partners may have been found. No binding means not detected with the bait.

The target in this assay is ROP54 with C-terminal 2×Strep 3×Flag epitope tag (ROP54SFII) (Toxoplasma gondii (type II, Pru∆ku80)). The assay is described as follows: affinity purification with mass spectrometry; ROP54SFII parasite lysate (0.5% NP-40, 150 mM NaCl, protease inhibitors) on Strep-Tactin beads 4 h at room temperature, eluted with 10 mM desthiobiotin; the remainder of the eluate analysed by mass spectrometry.

B1: ROP17 (protein, UniProt Q2PAY3 22-608)
chain: LLLRSPTSNDVFGELVASAERAQPLATRLTKRISRLNFNDREDDFWEDHGDASWNNSYTLVNGRTTLGSENRRRPASHSLIERPYYRDGRLSPVLGVQERRGRSVHSYHEEPVSFFDQRAFDEYTFRRRSQLHRQRARAGLRSRIKQNVRRLWTSARGAVRGWGRRVRRKIGDLFVGHLMPQLRRLRFWDQGLPPVVPPLIGNEPGQASVALVAERMEARLREKTLTEKNPTEAQQAVGTYLINSAENTWFISIPGGRYILLKKRGFLGGGGFGLVYHVEHPTTGQPFALKIFVQRVMNNEVGDKISDLIEDEFGVMKYFPPEWTPARMYSELRFMVPLLKLRVLGKPEFQDARNHLRIFSVCALFPKAQGDLEEAAALLADMDRTNAYNMRMSSTIQMVKLLARFHAFGLVHGDVKLQNFLVDKSGLLLLSDFTQILRTNERRYPPVVTVLYMSPEIATCLITRLRNAIPYTAEIDSWMLGISLYRLWCGDFPFGITLDATALQVAGIVIRSSASSLDFASCHDIPEQFREMIVGFLRKTPGVRLSPQQALEQFSLLNWKGPSPASDTASESEPVSTEEAALLQKE
B1: the binding result was “no binding”.

B2: ROP4 (protein, UniProt Q5Y808 34-578)
chain: RQRPHQWKSSEAALSVSPAGDIVDKYSRDSTEGENTVSEGEAEGSRGGSWLEQEGVELRSPSQDSQTGTSTASPTGFRRLLRRLRFWRRGSTRGSDDAAEVSRRTRVPLHTRLLQHLRRVARIIRHGVSAAAGRLFGRVRQVEAERPQPVFTEGDPPDLETNSLYYRDKVPGQGIIQEILRQKPGIAHHPESFSVVAADERVSRTLWAEGGVVRVASELGQPGRVLVRGRRIGLFRPGMQFEATDQATGEPMTALVGHTVLEATARDVDSMRNEGLAVGLFQKVKNPYLANRYLRFLAPFDLVTIPGKPLVQKAKSRNEVGWVKNLLFLLPPTHVDMETFVDEIGRFPQEDRPLADAARLYLTVQAVRLVAHLQDEGVVHGKIMPDSFCLKREGGLYLRDFGSLVRAGAKVVVPAEYDEYTPPEGRAAARSRFGSGATTMTYAFDAWTLGSVIFLIWCSRAPDTKSGYEYSVEFFFSRCRRVPENVKLLVYKLINPSVEARLLALQAIETPEYREMEEQLSAASRLYSGDGTLTGGDDDMPPLET
In the case of B2, the binding entry is reported as “no binding”.

The values above are taken from publication PMC4863586.
